These are yes or no findings as the source states them, for the method shown. For some assays here: In cells and extracts the contact can be indirect. Some binding calls cover weakened binding; strength is not graded here.

Chains of the proteins cited; added tags and fusions are not shown. Lines headed by an entry give the natural chain unless they say otherwise; changes in a name come on top.
UniProt P10275: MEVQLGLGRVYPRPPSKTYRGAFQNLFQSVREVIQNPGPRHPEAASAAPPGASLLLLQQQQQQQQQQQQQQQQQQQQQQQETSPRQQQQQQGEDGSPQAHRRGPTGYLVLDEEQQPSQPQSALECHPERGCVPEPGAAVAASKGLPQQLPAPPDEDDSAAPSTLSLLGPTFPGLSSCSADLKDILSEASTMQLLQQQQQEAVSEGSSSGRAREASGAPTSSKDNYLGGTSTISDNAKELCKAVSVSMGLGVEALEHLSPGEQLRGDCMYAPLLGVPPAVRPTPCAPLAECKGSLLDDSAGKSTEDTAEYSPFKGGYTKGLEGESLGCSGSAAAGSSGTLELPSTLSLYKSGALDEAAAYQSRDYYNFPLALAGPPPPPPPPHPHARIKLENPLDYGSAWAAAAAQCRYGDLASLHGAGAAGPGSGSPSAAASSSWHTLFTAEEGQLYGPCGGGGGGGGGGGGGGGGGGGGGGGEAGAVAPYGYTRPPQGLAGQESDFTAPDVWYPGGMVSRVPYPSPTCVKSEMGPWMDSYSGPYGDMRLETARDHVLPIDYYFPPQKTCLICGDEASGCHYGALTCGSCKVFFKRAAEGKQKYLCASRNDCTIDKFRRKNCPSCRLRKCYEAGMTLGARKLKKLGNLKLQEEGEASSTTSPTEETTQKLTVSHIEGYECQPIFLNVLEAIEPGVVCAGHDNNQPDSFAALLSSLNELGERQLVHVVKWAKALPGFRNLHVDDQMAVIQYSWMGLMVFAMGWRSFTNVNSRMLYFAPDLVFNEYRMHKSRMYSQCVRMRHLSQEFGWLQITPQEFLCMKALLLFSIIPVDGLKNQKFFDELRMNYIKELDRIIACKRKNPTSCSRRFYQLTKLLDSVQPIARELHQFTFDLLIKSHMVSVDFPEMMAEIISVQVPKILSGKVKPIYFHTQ
UniProt O14746: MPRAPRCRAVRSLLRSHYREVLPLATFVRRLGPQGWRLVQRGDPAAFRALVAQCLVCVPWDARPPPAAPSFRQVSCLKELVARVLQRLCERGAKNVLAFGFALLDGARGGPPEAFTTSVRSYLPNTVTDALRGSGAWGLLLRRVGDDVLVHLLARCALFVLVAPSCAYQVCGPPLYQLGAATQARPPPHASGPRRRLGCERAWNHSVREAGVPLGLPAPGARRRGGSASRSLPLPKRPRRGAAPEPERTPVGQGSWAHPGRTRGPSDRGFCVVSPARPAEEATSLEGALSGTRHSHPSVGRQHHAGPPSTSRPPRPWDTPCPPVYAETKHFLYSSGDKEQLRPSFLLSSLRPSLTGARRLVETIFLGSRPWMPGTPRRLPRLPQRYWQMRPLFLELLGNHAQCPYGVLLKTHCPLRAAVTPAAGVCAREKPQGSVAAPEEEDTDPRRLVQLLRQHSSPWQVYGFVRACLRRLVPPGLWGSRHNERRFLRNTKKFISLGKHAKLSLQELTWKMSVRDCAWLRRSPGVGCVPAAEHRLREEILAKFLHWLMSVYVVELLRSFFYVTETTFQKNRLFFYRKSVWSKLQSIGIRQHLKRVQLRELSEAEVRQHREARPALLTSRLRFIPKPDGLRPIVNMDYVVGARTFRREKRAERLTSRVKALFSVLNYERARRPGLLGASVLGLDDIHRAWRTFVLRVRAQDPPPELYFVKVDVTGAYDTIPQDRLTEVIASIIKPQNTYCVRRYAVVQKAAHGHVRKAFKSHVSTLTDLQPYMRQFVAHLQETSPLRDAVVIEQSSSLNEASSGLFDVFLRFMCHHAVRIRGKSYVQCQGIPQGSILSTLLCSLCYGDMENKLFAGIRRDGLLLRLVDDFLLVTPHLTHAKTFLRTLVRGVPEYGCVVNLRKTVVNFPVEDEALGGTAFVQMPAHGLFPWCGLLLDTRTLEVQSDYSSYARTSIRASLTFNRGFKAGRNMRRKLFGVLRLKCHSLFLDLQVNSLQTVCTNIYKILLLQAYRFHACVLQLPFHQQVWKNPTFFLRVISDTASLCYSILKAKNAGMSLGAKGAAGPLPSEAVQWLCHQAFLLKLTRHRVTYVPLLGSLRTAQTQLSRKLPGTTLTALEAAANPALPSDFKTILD

The target of assay [1] is androgen receptor (human (endogenous in RWPE-1 and WPMY-1)) (UniProt P10275). The assay can be described thus: flow cytometry on cells; fixed/permeabilized RWPE-1 and WPMY-1 cells, 1 h at room temperature with 1 ug anti-AR antibody or isotype control, then FITC-conjugated GV1001 for 30 min on ice; MFI of FITC; only the binder purified.
Assay [2] shares this target. Nature of the assay: co-IP; RWPE-1 and WPMY-1 cells treated with GV-FITC (100 uM) for 1 h at 37 C; lysates incubated with anti-AR antibody on Dynabeads Protein G; GV-FITC in the eluate read in a fluorometer (ex 488 nm, em 525 nm); only the binder purified.

Turning to EARPALLTSRLRFIPK (peptide, UniProt O14746 611-626, FITC-conjugated (position not given)) [FITC-conjugated GV1001], the binding result in assay [1] and in assay [2] was “binds” each time.
